Our source for the binding values is US20060286102A1.

Chains of the proteins cited; added tags and fusions are not shown. Residues count along the entry.
UniProt O43915, residues 93-201: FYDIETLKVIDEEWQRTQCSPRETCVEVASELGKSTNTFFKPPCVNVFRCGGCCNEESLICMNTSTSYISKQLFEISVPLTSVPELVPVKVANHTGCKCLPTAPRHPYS
UniProt P35916, residues 25-776: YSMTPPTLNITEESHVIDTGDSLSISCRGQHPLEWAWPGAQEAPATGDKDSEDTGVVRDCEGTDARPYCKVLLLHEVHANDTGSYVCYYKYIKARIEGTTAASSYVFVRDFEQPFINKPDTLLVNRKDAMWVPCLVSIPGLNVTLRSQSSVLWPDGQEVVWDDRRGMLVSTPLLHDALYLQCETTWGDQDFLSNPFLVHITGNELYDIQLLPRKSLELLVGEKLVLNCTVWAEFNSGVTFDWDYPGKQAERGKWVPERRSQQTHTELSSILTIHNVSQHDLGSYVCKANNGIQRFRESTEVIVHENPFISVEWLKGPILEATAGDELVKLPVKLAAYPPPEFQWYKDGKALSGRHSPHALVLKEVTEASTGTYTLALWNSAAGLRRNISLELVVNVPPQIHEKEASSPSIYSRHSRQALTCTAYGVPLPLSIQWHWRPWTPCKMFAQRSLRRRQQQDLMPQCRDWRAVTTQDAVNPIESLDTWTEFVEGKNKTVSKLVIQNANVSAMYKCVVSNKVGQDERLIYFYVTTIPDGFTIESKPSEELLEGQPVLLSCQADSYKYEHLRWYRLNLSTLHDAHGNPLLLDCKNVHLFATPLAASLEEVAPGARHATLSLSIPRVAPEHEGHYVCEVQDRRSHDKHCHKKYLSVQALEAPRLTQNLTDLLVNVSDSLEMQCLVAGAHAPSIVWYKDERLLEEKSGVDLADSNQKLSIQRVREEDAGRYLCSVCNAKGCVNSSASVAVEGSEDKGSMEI

No constants are given. Whether binding was seen depends on the method and setting. In cells and extracts the contact can be indirect. Some entries that bind do so weakly or less than the wild type.

The target in assay [1] is VEGF-D (UniProt O43915). Description: co-immunoprecipitation with anti-VEGF-D antibodies from conditioned medium, anti-Myc Western blot.
Assay [2] deals with VEGF-D (UniProt O43915). Description: co-immunoprecipitation competition; sVEGFR-3-Fc (2 ug) competes with sVEGF3-Myc for VEGF-D.

On to “soluble VEGFR-3 (Myc-His tagged, in conditioned medium of transfected 293T cells) (from UniProt P35916 25-272) (receptor)”, for which, in the assay with VEGF-D [1], the binding result is on record as “binds”. With “soluble VEGFR-3-Fc (R&D Systems) (from UniProt P35916 25-776) (Fc fusion)”, in the assay with VEGF-D [2], the binding entry is listed as “binds”.
